For assay [1], the target named is T1, drDnaA tagged with T18 or T25 through its C-terminal (Deinococcus radiodurans R1) (UniProt Q9RYE7).
T1 sequence: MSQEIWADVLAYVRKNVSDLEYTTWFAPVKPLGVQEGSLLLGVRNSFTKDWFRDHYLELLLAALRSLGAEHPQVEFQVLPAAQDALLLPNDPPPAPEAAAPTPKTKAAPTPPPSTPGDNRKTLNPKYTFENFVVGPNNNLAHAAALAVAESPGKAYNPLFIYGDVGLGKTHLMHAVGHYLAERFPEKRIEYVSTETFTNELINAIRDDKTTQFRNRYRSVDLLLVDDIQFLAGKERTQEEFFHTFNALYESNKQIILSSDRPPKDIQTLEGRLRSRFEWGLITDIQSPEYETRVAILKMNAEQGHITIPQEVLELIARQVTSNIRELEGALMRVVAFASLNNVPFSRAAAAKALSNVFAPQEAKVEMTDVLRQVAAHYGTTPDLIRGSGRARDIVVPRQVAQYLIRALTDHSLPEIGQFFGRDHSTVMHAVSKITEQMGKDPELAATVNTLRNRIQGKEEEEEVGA
Kind of assay: two-hybrid.

Assay [2] concerns the target T2, T18 tagged PprA (Deinococcus radiodurans) (UniProt O32504).
T2 sequence: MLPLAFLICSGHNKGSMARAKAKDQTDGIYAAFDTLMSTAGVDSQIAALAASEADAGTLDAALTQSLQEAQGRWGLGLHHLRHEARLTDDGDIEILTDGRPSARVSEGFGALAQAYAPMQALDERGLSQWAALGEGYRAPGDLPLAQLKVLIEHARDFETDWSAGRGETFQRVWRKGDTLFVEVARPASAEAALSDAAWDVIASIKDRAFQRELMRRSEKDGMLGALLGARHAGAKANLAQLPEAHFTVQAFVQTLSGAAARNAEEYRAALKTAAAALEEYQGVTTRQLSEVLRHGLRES
Kind of assay: two-hybrid.

Assay [3] has as its target T1, drDnaA tagged with T18 or T25 through its C-terminal (Deinococcus radiodurans R1). As to the kind of experiment: two-hybrid. This is another data set of the same source.
Assay [4] has as its target T3, native PprA expressing on chromosome (Deinococcus radiodurans R1 (endogenous)) (UniProt O32504).
T3 sequence: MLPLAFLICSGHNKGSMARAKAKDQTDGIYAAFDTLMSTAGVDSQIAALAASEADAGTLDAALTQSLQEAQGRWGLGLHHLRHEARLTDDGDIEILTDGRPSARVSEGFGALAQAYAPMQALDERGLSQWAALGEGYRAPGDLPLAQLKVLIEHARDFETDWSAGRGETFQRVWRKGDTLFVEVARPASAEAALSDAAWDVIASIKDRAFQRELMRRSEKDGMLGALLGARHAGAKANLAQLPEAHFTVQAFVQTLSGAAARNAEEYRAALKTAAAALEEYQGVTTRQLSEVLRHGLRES
As to the kind of experiment: co-IP.

Data on three molecules can be found in doi:10.1101/2020.03.25.007906 (bioRxiv, 2020).

Like-named read-outs stand apart in the source and are kept apart here. Results are given in words; binding and its absence hold for the method and conditions named. For some assays here: In cells and extracts the contact can be indirect. Some entries that bind do so weakly or less than the wild type. Sequences can lack the tags named with a protein.

B1: recombinant PprA (natural protein, Deinococcus radiodurans, UniProt O32504 1-300, looked up)
chain: MLPLAFLICSGHNKGSMARAKAKDQTDGIYAAFDTLMSTAGVDSQIAALAASEADAGTLDAALTQSLQEAQGRWGLGLHHLRHEARLTDDGDIEILTDGRPSARVSEGFGALAQAYAPMQALDERGLSQWAALGEGYRAPGDLPLAQLKVLIEHARDFETDWSAGRGETFQRVWRKGDTLFVEVARPASAEAALSDAAWDVIASIKDRAFQRELMRRSEKDGMLGALLGARHAGAKANLAQLPEAHFTVQAFVQTLSGAAARNAEEYRAALKTAAAALEEYQGVTTRQLSEVLRHGLRES
For the molecule B1, the binding entry in assay [1] is listed as “binds”.

B2: drDnaA tagged with T18 or T25 through its C-terminal (protein, UniProt Q9RYE7 1-466)
chain: MSQEIWADVLAYVRKNVSDLEYTTWFAPVKPLGVQEGSLLLGVRNSFTKDWFRDHYLELLLAALRSLGAEHPQVEFQVLPAAQDALLLPNDPPPAPEAAAPTPKTKAAPTPPPSTPGDNRKTLNPKYTFENFVVGPNNNLAHAAALAVAESPGKAYNPLFIYGDVGLGKTHLMHAVGHYLAERFPEKRIEYVSTETFTNELINAIRDDKTTQFRNRYRSVDLLLVDDIQFLAGKERTQEEFFHTFNALYESNKQIILSSDRPPKDIQTLEGRLRSRFEWGLITDIQSPEYETRVAILKMNAEQGHITIPQEVLELIARQVTSNIRELEGALMRVVAFASLNNVPFSRAAAAKALSNVFAPQEAKVEMTDVLRQVAAHYGTTPDLIRGSGRARDIVVPRQVAQYLIRALTDHSLPEIGQFFGRDHSTVMHAVSKITEQMGKDPELAATVNTLRNRIQGKEEEEEVGA
For the molecule B2, the binding entry in assay [2], in assay [1] and in assay [3] was “binds” each time.

B3: drDnaA with T18 tag or polyhistidine tag expressed on plasmids in D. radiodurans (protein, UniProt Q9RYE7 1-466)
chain: MSQEIWADVLAYVRKNVSDLEYTTWFAPVKPLGVQEGSLLLGVRNSFTKDWFRDHYLELLLAALRSLGAEHPQVEFQVLPAAQDALLLPNDPPPAPEAAAPTPKTKAAPTPPPSTPGDNRKTLNPKYTFENFVVGPNNNLAHAAALAVAESPGKAYNPLFIYGDVGLGKTHLMHAVGHYLAERFPEKRIEYVSTETFTNELINAIRDDKTTQFRNRYRSVDLLLVDDIQFLAGKERTQEEFFHTFNALYESNKQIILSSDRPPKDIQTLEGRLRSRFEWGLITDIQSPEYETRVAILKMNAEQGHITIPQEVLELIARQVTSNIRELEGALMRVVAFASLNNVPFSRAAAAKALSNVFAPQEAKVEMTDVLRQVAAHYGTTPDLIRGSGRARDIVVPRQVAQYLIRALTDHSLPEIGQFFGRDHSTVMHAVSKITEQMGKDPELAATVNTLRNRIQGKEEEEEVGA
For the molecule B3, in assay [4], the binding result is recorded as “binds”.
